{
  "sequences": {"note": "Amino acid sequences for entries named in this document (tags omitted).", "UniProt P34730": "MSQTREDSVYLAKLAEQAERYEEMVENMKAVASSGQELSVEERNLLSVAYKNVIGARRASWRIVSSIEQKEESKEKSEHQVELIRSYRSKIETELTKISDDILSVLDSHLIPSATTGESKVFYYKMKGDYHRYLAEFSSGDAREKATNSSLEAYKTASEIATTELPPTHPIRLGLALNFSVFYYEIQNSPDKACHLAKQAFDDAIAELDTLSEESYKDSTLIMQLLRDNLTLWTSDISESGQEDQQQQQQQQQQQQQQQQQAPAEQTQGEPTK"},
  "source": "paper PMC5653847",
  "binders": {"B1": {"name": "Bul1-FLAG (protein, UniProt P48524 1-976)", "chain": "MAKDLNDSGFPPKRKPLLRPQRSDFTANSSTTMNVNANTRGRGRQKQEGGKGSSRSPSLHSPKSWIRSASATGILGLRRPELAHSHSHAPSTGTPAGGNRSPLRRSTANATPVETGRSLTDGDINNVVDVLPSFEMYNTLHRHIPQGNVDPDRHDFPPSYQEANNSTATGAAGSSADLSHQSLSTDALGATRSSSTSNLENLIPLRTEHHSIAAHQSTAVDEDSLDIPPILDDLNDTDNIFIDKLYTLPKMSTPIEITIKTTKHAPIPHVKPEEESILKEYTSGDLIHGFITIENKSQANLKFEMFYVTLESYISIIDKVKSKRTIKRFLRMVDLSASWSYSKIALGSGVDFIPADVDYDGSVFGLNNSRVLEPGVKYKKFFIFKLPLQLLDVTCKQEHFSHCLLPPSFGIDKYRNNCKYSGIKVNRVLGCGHLGTKGSPILTNDMSDDNLSINYTIDARIVGKDQKASKLYIMKEREYNLRVIPFGFDANVVGERTTMSQLNDITKLVQERLDALRKIFQRLEKKEPITNRDIHGADLSGTIDDSIESDSQEILQRKLDQLHIKNRNNYLVNYNDLKLGHDLDNGRSGNSGHNTDTSRAWGPFVESELKYKLKNKSNSSSFLNFSHFLNSSSSSMSSSSNAGKNNHDLTGNKERTGLILVKAKIPKQGLPYWAPSLLRKTNVFESKSKHDQENWVRLSELIPEDVKKPLEKLDLQLTCIESDNSLPHDPPEIQSITTELICITAKSDNSIPIKLNSELLMNKEKLTSIKALYDDFHSKICEYETKFNKNFLELNELYNMNRGDRRPKELKFTDFITSQLFNDIESICNLKVSVHNLSNIFKKQVSTLKQHSKHALSEDSISHTGNGSSSSPSSASLTPVTSSSKSSLFLPSGSSSTSLKFTDQIVHKWVRIAPLQYKRDINVNLEFNKDIKETLIPSFESCLCCRFYCVRVMIKFENHLGVAKIDIPISVRQVTK"}},
  "key": {"[1]": {"biological_target": "GST-fused 14-3-3 protein Bmh2 (yeast) (UniProt P34730)", "assay": "condition: only cells treated with ammonium (50 mM) for 30 min; pull-down; GST-Bmh2 pulled down from lysates of yeast cells (MA025) grown on glucose proline medium and collected 30 min after addition of ammonium (50 mM); Bul1-FLAG detected by anti-FLAG immunoblot"}, "[2]": {"biological_target": "GST-fused 14-3-3 protein Bmh2 (yeast) (UniProt P34730)", "assay": "pull-down; GST-Bmh2 pulled down from lysates of yeast cells (MA025) grown on glucose proline medium, collected before and after addition of FTY720 (10 μM); Bul1-FLAG detected by anti-FLAG immunoblot"}},
  "note": "Results are given in words; binding and its absence hold for the method and conditions named. In cells and extracts the contact can be indirect. Some results given as binding are weak or reduced against the parent protein; the word gives no strength. Tags and fused reporters may be left off the sequences shown.",
  "data": [
    {"binder": "B1", "values": [
      {"measurement": "binding", "setting": "[1]", "value": "no binding"},
      {"measurement": "binding", "setting": "[2]", "value": "binds"}
    ]}
  ]
}
